Measured values as given in US7189832 (University of California, dated 2007).
These are yes or no findings as the source states them, for the method shown. In cells and extracts the contact can be indirect. Some results given as binding are weak or reduced against the parent protein; the word gives no strength.

Target: T1, endogenous IKK-α (human) (UniProt O15111)
T1 sequence (looked up): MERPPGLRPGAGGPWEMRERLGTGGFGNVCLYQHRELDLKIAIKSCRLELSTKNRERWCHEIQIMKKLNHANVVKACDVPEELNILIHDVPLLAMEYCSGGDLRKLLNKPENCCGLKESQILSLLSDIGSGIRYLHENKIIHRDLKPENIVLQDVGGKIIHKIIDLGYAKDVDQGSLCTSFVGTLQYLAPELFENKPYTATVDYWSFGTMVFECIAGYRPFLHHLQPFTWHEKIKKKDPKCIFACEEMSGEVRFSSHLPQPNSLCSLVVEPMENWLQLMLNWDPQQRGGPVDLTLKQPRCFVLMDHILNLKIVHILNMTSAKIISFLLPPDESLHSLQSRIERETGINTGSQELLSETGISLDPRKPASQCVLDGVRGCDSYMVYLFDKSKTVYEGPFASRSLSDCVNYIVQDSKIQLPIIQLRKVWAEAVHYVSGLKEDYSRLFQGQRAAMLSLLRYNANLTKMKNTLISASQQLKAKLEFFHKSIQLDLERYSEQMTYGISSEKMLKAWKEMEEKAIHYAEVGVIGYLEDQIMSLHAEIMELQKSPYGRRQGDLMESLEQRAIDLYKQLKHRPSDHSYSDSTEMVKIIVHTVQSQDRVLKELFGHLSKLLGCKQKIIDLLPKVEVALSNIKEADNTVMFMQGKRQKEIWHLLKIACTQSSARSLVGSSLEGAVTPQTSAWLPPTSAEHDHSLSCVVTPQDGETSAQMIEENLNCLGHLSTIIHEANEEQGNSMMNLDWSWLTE
Assay: co-purification on anti-IKK-α immunoaffinity column, immunoblot

- binding: binds
B1: endogenous IKK-β (enzyme, human, UniProt O14920 1-756, looked up)
chain: MSWSPSLTTQTCGAWEMKERLGTGGFGNVIRWHNQETGEQIAIKQCRQELSPRNRERWCLEIQIMRRLTHPNVVAARDVPEGMQNLAPNDLPLLAMEYCQGGDLRKYLNQFENCCGLREGAILTLLSDIASALRYLHENRIIHRDLKPENIVLQQGEQRLIHKIIDLGYAKELDQGSLCTSFVGTLQYLAPELLEQQKYTVTVDYWSFGTLAFECITGFRPFLPNWQPVQWHSKVRQKSEVDIVVSEDLNGTVKFSSSLPYPNNLNSVLAERLEKWLQLMLMWHPRQRGTDPTYGPNGCFKALDDILNLKLVHILNMVTGTIHTYPVTEDESLQSLKARIQQDTGIPEEDQELLQEAGLALIPDKPATQCISDGKLNEGHTLDMDLVFLFDNSKITYETQISPRPQPESVSCILQEPKRNLAFFQLRKVWGQVWHSIQTLKEDCNRLQQGQRAAMMNLLRNNSCLSKMKNSMASMSQQLKAKLDFFKTSIQIDLEKYSEQTEFGITSDKLLLAWREMEQAVELCGRENEVKLLVERMMALQTDIVDLQRSPMGRKQGGTLDDLEEQARELYRRLREKPRDQRTEGDSQEMVRLLLQAIQSFEKKVRVIYTQLSKTVVCKQKALELLPKVEEVVSLMNEDEKTVVRLQEKRQKELWNLLKIACSKVRGPVSGSPDSMNASRLSQPGQLMSQPSTASNSLPEPAKKSEELVAEAHNLCTLLENAIQDTVREQDQSFTALDWSWLQTEEEEHSCLEQAS
